Laboratory results taken from ChEMBL document CHEMBL4477198, “Metabolites from the Fungal Endophyte Aspergillus austroafricanus in Axenic Culture and in Fungal-Bacterial Mixed Cultures” (J Nat Prod, 2016).

System: Mycobacterium tuberculosis
Assay: Antibacterial activity against Mycobacterium tuberculosis H37Rv by broth microdilution method
Format: functional

Structure (SMILES): CO[C@H]1/C=C/O[C@@]2(C)Oc3c(C)c(O)c4c(O)c(c(/C=N/N5CCN(C)CC5)c(O)c4c3C2=O)NC(=O)/C(C)=C\C=C\[C@H](C)[C@H](O)[C@@H](C)[C@@H](O)[C@@H](C)[C@H](OC(C)=O)[C@@H]1C [RIFAMPIN]
- MIC: ≤ 0.64 µg/mL
